# Screening data, single-dose tests

The chains behind the UniProt entries cited, without tags or fusion partners. Residues count along the entry.
UniProt P9WFT3, whole entry: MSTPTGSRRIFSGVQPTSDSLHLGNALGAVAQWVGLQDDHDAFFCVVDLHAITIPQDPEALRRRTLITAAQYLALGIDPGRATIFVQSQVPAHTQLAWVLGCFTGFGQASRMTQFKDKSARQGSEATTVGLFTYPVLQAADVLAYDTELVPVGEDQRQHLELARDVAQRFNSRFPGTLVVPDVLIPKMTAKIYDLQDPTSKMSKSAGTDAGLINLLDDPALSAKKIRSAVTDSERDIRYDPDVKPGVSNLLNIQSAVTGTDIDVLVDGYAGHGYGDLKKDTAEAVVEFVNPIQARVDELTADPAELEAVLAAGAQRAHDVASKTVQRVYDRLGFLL
UniProt Q4DA54, 1-478: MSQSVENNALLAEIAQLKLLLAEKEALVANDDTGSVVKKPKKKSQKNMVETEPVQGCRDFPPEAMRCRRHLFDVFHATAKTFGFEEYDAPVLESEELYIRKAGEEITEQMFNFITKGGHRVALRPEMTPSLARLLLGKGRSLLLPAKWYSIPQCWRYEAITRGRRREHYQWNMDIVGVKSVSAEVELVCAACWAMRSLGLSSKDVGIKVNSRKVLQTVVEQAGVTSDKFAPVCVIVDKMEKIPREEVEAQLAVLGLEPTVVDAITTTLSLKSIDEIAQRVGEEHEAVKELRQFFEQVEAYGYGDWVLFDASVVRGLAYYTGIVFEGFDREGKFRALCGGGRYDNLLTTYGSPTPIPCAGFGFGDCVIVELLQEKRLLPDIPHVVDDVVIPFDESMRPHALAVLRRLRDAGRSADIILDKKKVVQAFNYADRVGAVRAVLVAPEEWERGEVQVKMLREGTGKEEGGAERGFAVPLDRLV
UniProt Q8IDJ8, 1-583: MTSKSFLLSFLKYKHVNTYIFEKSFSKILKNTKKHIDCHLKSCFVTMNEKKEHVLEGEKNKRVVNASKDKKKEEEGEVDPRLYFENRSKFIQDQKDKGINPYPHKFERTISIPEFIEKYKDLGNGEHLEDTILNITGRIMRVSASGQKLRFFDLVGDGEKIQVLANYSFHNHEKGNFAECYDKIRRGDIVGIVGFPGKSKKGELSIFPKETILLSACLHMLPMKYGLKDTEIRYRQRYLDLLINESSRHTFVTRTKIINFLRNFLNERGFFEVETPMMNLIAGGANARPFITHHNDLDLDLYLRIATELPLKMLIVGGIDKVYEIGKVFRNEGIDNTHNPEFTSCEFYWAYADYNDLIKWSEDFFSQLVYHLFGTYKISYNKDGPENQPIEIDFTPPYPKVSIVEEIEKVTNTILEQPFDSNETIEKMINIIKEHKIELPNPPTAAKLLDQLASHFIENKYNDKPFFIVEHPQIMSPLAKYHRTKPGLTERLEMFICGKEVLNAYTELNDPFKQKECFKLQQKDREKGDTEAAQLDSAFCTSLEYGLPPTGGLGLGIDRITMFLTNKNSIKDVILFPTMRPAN
UniProt P9WNZ1, whole entry: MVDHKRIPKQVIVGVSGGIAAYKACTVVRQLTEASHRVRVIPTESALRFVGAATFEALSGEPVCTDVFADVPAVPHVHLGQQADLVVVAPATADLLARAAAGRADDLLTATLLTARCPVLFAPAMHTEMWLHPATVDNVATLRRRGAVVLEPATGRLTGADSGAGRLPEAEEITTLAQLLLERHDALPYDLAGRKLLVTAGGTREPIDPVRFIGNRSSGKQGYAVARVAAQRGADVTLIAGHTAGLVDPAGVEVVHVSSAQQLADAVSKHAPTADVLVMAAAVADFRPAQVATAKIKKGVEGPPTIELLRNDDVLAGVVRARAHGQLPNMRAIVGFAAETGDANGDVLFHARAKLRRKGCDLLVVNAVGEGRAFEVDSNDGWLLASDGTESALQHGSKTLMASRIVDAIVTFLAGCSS
UniProt I6X8D2, whole entry: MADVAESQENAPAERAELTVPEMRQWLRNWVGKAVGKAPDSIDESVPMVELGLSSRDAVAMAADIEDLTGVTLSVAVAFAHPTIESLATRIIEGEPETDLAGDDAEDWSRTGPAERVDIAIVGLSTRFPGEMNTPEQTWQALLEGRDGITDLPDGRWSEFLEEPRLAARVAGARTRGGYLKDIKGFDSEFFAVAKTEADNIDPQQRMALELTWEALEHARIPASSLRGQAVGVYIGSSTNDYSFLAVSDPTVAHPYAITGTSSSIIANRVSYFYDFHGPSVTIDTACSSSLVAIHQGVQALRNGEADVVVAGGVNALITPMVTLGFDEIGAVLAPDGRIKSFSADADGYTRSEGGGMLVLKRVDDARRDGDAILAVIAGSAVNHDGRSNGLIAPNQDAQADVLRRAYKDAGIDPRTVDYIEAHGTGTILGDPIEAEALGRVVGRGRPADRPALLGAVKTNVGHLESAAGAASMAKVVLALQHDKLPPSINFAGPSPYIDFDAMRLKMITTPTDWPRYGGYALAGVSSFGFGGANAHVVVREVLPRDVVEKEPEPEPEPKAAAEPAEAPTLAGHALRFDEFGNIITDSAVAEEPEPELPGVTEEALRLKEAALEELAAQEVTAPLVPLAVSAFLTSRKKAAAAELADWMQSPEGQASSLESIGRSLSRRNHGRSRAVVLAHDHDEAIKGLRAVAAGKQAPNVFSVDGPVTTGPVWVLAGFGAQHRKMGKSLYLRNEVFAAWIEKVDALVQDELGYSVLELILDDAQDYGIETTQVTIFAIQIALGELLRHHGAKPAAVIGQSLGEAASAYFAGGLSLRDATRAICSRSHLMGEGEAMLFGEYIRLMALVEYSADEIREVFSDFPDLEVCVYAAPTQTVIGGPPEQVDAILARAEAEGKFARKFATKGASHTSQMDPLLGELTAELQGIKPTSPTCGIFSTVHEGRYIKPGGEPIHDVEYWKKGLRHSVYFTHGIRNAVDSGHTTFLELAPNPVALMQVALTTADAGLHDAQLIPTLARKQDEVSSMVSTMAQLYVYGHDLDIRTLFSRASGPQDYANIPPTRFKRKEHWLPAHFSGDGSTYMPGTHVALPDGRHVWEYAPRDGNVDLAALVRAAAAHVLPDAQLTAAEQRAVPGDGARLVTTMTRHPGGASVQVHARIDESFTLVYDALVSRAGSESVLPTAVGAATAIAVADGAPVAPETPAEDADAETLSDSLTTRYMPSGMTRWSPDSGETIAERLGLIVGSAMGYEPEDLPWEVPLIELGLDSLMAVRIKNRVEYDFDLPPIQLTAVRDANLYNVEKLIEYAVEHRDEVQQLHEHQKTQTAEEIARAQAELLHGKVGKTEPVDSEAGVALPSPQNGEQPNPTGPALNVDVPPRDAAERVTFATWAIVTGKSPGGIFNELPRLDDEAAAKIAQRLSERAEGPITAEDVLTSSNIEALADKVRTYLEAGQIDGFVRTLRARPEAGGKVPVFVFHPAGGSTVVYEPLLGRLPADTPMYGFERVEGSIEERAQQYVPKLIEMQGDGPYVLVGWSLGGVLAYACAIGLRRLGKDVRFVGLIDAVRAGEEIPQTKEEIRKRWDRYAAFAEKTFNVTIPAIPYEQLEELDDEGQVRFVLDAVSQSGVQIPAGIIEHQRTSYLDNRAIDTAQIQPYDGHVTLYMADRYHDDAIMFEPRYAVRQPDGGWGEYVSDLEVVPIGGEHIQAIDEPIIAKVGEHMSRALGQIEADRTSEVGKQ

Data taken from ChEMBL document CHEMBL3988442, “University of Dundee, Small-Polar-MMV Screening Library” (2021).

Each number is a percent effect as filed.
The record does not define 0% and 100%; most values in the screen are far below 50% and negative numbers occur (in some assays of this library far below -100).
This is an unselected part of the compounds tested.
A dash means the value is not listed here; it may have been measured.

MtTrpRS: 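Tryptophan-tRNA ligase, Mycobacterium tuberculosis (UniProt P9WFT3). Enzyme assay of tryptophanyl-tRNA synthetase; the read-out is not stated. Tested at 10 µM. Higher most likely means stronger inhibition; the record gives no direction and few retests gave an IC50. Of about 65,000 compounds tested this way, about 64 (0.098%) reached 50% or more in at least one test.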
TcHisRS: 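Histidine-tRNA ligase, Trypanosoma cruzi CL Brener (UniProt Q4DA54). Enzyme assay of histidyl-tRNA synthetase; the read-out is not stated. Concentration: 30 µM. The record gives no direction; compounds that gave an IC50 in retests scored well above the rest, so higher reads as stronger inhibition. Size under these conditions: about 69,000 compounds, about 31 of them at 50% or above in at least one test.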
PfKRS1: 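Enzyme assay of the cytosolic lysyl-tRNA synthetase in 384-well plates, read by luminescence. Target: Lysine-tRNA ligase, Plasmodium falciparum 3D7 (UniProt Q8IDJ8). Tested at 30 µM. Direction is inferred from only a few compounds that gave an IC50; most scored high, so higher reads as stronger inhibition. Of about 69,000 compounds tested this way, about 49 (0.071%) reached 50% or more in at least one test.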
CoaBC: 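Enzyme assay of CoaBC with a phosphate dye (Biomol Green) read at 650 nm. Target: Coenzyme A biosynthesis protein CoaBC, Mycobacterium tuberculosis (UniProt P9WNZ1). Tested at 30 µM. Higher reads as stronger inhibition, judged from the few compounds that gave an IC50. Most strong results did not repeat in a second test. Of about 67,000 compounds tested this way, about 40 (0.06%) reached 50% or more in at least one test.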
Pks13 thioesterase: 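Polyketide synthase Pks13, Mycobacterium tuberculosis (UniProt I6X8D2). Enzyme assay of the thioesterase domain of polyketide synthase 13; the read-out is not stated. Concentration: 30 µM. The record gives no direction; the compounds picked for IC50 retests had high values, so higher reads as stronger inhibition. Size under these conditions: about 67,000 compounds, about 300 of them at 50% or above in at least one test.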
Leishmania in macrophages: 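Cell assay of Leishmania donovani living inside macrophages; the read-out is not stated. Concentration: 30 µM. The record gives no direction; compounds that gave an IC50 in retests scored well above the rest, so higher reads as stronger inhibition. Of about 69,000 compounds tested this way, about 1,000 (1.5%) reached 50% or more in at least one test.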

* CC1(CCC(=O)N2CCC(n3cc(C4(O)CCCC4)nn3)CC2)CC1 : MtTrpRS: 0.9288%; TcHisRS: 1.299%; PfKRS1: 3.724%; Pks13 thioesterase: -10.3%; Leishmania in macrophages: 4.871%
* Cc1ccc(-n2cccn2)cc1S(=O)(=O)N1C[C@@H]2CC[C@H](C1)N(C)C2 : MtTrpRS: 0%; TcHisRS: 10.4%; PfKRS1: 1.079%; CoaBC: -29.65%; Pks13 thioesterase: -4.294%
* CCc1cc(C(F)(F)F)c2c(C3CCCN(C(=O)COC)C3)noc2n1 (stereo not given) : TcHisRS: 1.498%; PfKRS1: 2.518%; CoaBC: 0.1239%; Pks13 thioesterase: 3.451%; Leishmania in macrophages: -10.88%
* O=C(CC1CCCO1)NCCCC(=O)Nc1ccc(Cl)cc1 (stereo not given) : MtTrpRS: 3.819%; TcHisRS: 6.931%; PfKRS1: -3.432%; CoaBC: -1.928%; Pks13 thioesterase: -3.226%; Leishmania in macrophages: 10.72%
* COC(=O)NCC(=O)N(C)CC1Cc2ccccc2CN1C (stereo not given) : MtTrpRS: 0.9909%; TcHisRS: -0.5128%; PfKRS1: 4.126%; CoaBC: 1.242%; Pks13 thioesterase: -7.866%; Leishmania in macrophages: 52.66%
* Cc1ccc(C(=O)NCC(O)CN2CCCC2=O)cc1Cl (stereo not given) : MtTrpRS: -7.123%; TcHisRS: 3.03%; PfKRS1: 1.145%; CoaBC: 0.9724%; Pks13 thioesterase: 10.41%; Leishmania in macrophages: -2.277%
* CCc1nccn1C1CCCN(C(=O)c2cncnc2C)C1 (stereo not given) : MtTrpRS: 2.825%; TcHisRS: -0.2907%; PfKRS1: -1.856%; CoaBC: -2.445%; Pks13 thioesterase: -14.88%; Leishmania in macrophages: -1.155%
* CCOc1ncccc1C(=O)NC1CCCN(c2ncccn2)C1 (stereo not given) : MtTrpRS: 2.555%; TcHisRS: 2.564%; PfKRS1: 0.8843%; CoaBC: -8.311%; Pks13 thioesterase: -15%; Leishmania in macrophages: 26.53%
* [H][C@]12CC[C@]([H])(CN(Cc3cscn3)C1)N(C(=O)CSc1ccccn1)C2 : Leishmania in macrophages: -10.3%
* O=C(C1CCCO1)N1CCC2(CC1)COCCN(Cc1cccnc1)C2 (stereo not given) : TcHisRS: 9.524%; PfKRS1: 2.153%; CoaBC: 1.728%; Pks13 thioesterase: -6.245%
* COc1ccc(CN(C)c2ccc(-c3nccn3C)nn2)cc1OC : MtTrpRS: -4.244%; TcHisRS: 5.195%; PfKRS1: 3.045%; CoaBC: 4.878%; Pks13 thioesterase: -6.657%; Leishmania in macrophages: -9.09%
* [H][C@@]12CN(C(=O)c3ccncc3)C[C@]1([H])OCCN2Cc1csc(C)n1 : Leishmania in macrophages: 29.25%
* Cc1cc(C)cc(S(=O)(=O)NCC2CNCCOC2)c1 (stereo not given) : MtTrpRS: -1.147%; TcHisRS: 6.077%; PfKRS1: 1.021%; CoaBC: -19.68%; Pks13 thioesterase: -17.23%; Leishmania in macrophages: 14.05%

2 of the entries, repeated:

Compound	MtTrpRS	TcHisRS	PfKRS1	CoaBC	Pks13 thioesterase	Leishmania in macrophages
CCOc1ncccc1C(=O)NC1CCCN(c2ncccn2)C1 (stereo not given)	2.555	2.564	0.8843	-8.311	-15	26.53
Cc1ccc(-n2cccn2)cc1S(=O)(=O)N1C[C@@H]2CC[C@H](C1)N(C)C2	0	10.4	1.079	-29.65	-4.294	-